Results on one substance are retold here after publication PMC8260841.

Protein sequences, listed by entry. Tags and fused reporters are not part of them. Lines headed by an entry give the natural chain unless they say otherwise; changes in a name come on top.
UniProt P11308: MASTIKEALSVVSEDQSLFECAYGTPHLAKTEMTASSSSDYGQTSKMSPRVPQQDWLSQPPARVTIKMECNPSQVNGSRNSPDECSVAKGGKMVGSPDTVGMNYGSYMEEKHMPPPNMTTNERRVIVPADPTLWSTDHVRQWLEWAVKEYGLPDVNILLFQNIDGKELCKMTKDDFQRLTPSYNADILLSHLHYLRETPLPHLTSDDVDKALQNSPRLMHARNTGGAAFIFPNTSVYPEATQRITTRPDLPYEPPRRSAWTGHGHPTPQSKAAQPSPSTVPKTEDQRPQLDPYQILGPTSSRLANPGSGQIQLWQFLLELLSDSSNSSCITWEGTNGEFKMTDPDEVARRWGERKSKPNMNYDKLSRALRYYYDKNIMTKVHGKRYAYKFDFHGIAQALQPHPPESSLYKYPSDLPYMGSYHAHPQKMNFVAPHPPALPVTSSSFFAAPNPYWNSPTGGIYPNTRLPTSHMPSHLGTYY
UniProt O94953: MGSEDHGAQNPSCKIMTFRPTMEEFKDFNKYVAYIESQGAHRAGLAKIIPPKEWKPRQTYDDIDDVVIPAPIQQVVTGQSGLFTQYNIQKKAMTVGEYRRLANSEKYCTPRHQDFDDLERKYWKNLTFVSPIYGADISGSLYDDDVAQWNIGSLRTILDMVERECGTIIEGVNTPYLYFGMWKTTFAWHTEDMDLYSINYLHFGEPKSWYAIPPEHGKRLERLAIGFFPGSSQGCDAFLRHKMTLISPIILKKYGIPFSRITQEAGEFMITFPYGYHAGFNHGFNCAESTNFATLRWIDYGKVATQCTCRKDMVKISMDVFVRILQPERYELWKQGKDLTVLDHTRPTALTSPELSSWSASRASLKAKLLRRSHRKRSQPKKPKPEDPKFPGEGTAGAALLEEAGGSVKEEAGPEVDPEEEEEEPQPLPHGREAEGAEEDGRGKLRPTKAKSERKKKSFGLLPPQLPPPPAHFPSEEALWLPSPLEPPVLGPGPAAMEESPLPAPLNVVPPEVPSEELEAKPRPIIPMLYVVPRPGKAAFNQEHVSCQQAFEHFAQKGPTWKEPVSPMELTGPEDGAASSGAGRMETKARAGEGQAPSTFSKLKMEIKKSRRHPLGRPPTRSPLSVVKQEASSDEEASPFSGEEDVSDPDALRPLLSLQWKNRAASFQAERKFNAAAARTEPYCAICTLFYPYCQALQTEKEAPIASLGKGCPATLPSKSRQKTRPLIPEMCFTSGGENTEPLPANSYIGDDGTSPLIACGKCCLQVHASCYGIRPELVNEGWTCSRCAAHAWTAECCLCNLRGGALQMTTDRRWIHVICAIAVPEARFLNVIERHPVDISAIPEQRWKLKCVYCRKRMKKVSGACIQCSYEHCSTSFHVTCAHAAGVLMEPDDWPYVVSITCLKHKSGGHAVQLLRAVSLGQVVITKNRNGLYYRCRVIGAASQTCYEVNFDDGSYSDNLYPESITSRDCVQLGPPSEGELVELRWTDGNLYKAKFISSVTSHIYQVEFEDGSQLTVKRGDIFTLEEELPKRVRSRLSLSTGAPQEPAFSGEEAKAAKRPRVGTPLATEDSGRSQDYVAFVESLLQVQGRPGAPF

No constants are given. Whether binding was seen depends on the method and setting. Binding seen in cells or lysates may run through a third protein. A result given as binding can be weak or reduced; the word gives no strength.

This experiment addresses FLAG-tagged ERG1 (ETS-related gene 1) (UniProt P11308). As to the kind of experiment: co-IP; HEK293 cells transfected with expression constructs (FLAG-ERG1, Myc-KDM4B); immunoprecipitation with anti-FLAG or IgG; lysates in RIPA buffer (50 mM Tris pH7.4, 150 mM NaCl, 1% Triton X-100), Protein A/G-plus agarose beads, Western blot.

“Myc-tagged KDM4B (from UniProt O94953 1-1096) (enzyme)”: the binding result is reported as “binds”.
